PubChem BioAssay AID1508587 – Peter MacCallum Cancer Centre – 2020
Shown is an unselected part of about 1,600 deposited reagents. Over the whole deposit, 623 (39%) are marked active. 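Calls are for each duplex; lactate ratios contain extreme outliers.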 A number with no mark means an inactive call. Reagents against one gene are numbered here. Not all columns of the deposit are shown.

- Test: 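Retest of knockdowns boosting BRAF inhibitor action on lactate release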 (follow-up of hits)
- Cells: human WM266.4 melanoma cells with a BRAF V600 mutation
- Reagents: single siRNA against human genes, 25 nM
- Timing: 96 h
- Conditions: vemurafenib 300 nM (about IC25), given 48 h after transfection for 48 h
- Measured: 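Medium lactate read by absorbance over DAPI-counted nuclei; ratio with versus without vemurafenib, set against non-targeting siRNA, averaged over 2 replicates; cell number also recorded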
- Scale: lactate per cell, drug vs no drug: higher = less drug-induced drop in lactate per cell; lactate per cell with vemurafenib: higher = more lactate per cell under drug
- Active means: 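Enhancer call for any duplex whose drug versus no-drug per-cell lactate ratio is below 0.55 (2 SD beneath non-targeting average); genes confirmed when at least 2 of their 4 duplexes qualify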

After knock-down of HEPH #1, the record shows lactate per cell, drug vs no drug 0.62; lactate per cell with vemurafenib 1.68.
HEPH #2 showed lactate per cell, drug vs no drug 0.47 (active); lactate per cell with vemurafenib 0.64.
Silencing of HEPH #3 came out at: lactate per cell, drug vs no drug 0.36 (active); lactate per cell with vemurafenib 0.4.
Depletion of HEPH #4 resulted in: lactate per cell, drug vs no drug 0.62; lactate per cell with vemurafenib 0.96.
CD9 #1 scored lactate per cell, drug vs no drug 0.73; lactate per cell with vemurafenib 4.29.
After knock-down of CD9 #2, the screen gave lactate per cell, drug vs no drug 0.57; lactate per cell with vemurafenib 1.16.
CD9 #3 scored lactate per cell, drug vs no drug 0.28 (active); lactate per cell with vemurafenib 0.26.
Against CD9 #4, the entry reads lactate per cell, drug vs no drug 0.83; lactate per cell with vemurafenib 1.03.
PPIA #1 gave lactate per cell, drug vs no drug 0.41 (active); lactate per cell with vemurafenib 2.47.
PPIA #2 scored lactate per cell, drug vs no drug 0.68; lactate per cell with vemurafenib 10.3.
PPIA #3 scored lactate per cell, drug vs no drug 0.52 (active); lactate per cell with vemurafenib 1.23.
Against PPIA #4 the deposit lists lactate per cell, drug vs no drug 0.48 (active); lactate per cell with vemurafenib 0.7.
Knock-down of DLL3 #1 came out at: lactate per cell, drug vs no drug 0.55; lactate per cell with vemurafenib 1.35.
Depletion of DLL3 #2 resulted in: lactate per cell, drug vs no drug 0.36 (active); lactate per cell with vemurafenib 0.74.
After knock-down of DLL3 #3, the record shows lactate per cell, drug vs no drug 0.34 (active); lactate per cell with vemurafenib 0.52.
After knock-down of DLL3 #4, the screen gave lactate per cell, drug vs no drug 0.7; lactate per cell with vemurafenib 1.84.
Against ZBTB38 #1, the values are lactate per cell, drug vs no drug 0.57; lactate per cell with vemurafenib 1.38.
Silencing of ZBTB38 #2 resulted in: lactate per cell, drug vs no drug 0.6; lactate per cell with vemurafenib 1.21.
After knock-down of ZBTB38 #3, the screen gave lactate per cell, drug vs no drug 0.88; lactate per cell with vemurafenib 1.54.
Knock-down of ZBTB38 #4 gave: lactate per cell, drug vs no drug 0.49 (active); lactate per cell with vemurafenib 2.57.
Depletion of CCR1 #1 resulted in: lactate per cell, drug vs no drug 0.66; lactate per cell with vemurafenib 1.5.
Silencing of CCR1 #2 gave: lactate per cell, drug vs no drug 0.55; lactate per cell with vemurafenib 1.04.
CCR1 #3 gave lactate per cell, drug vs no drug 0.7; lactate per cell with vemurafenib 1.33.
Against CCR1 #4, the entry reads lactate per cell, drug vs no drug 0.47 (active); lactate per cell with vemurafenib 0.96.
YTHDF2 #1 gave lactate per cell, drug vs no drug 0.63; lactate per cell with vemurafenib 1.8.
After knock-down of YTHDF2 #2, the screen gave lactate per cell, drug vs no drug 0.46 (active); lactate per cell with vemurafenib 1.1.
Against YTHDF2 #3, the values are lactate per cell, drug vs no drug 0.73; lactate per cell with vemurafenib 1.17.
After knock-down of YTHDF2 #4, the screen gave lactate per cell, drug vs no drug 0.3 (active); lactate per cell with vemurafenib 1.34.

2 of these entries, reformatted.
Gene | siRNA no. | lactate per cell, drug vs no drug | lactate per cell with vemurafenib
HEPH | 4 | 0.62 | 0.96
CD9 | 1 | 0.73 | 4.29
